Laboratory results: PubChem BioAssay AID1508597 (Cure First, 2020)

Purpose: 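Survival screen with siRNA in ovarian cancer cells derived from patients, with or without rucaparib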 (primary screen)
Cells: human ovarian carcinoma lines grown from tumours: OCI-P5x (papillary serous) and OCI-C5x (clear cell)
Knock-down reagent: siRNA pool against human genes, 1.25 pmol siRNA per well
Timing: 72 h or 96 h, depending on the cell culture
Challenge: rucaparib 20 µM (about IC30) or vehicle, present until read-out
Rucaparib or vehicle: Vehicle
Cell line: OCI-C5x (clear cell)
Detection: 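ATP luminescence measured at 72 or 96 h according to the culture, then normalised and expressed as percent viability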
Scale: viability, normalised: higher = more viable cells remaining
Rule for the call: 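Active when normalised viability falls below 80 percent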
Meaning of the calls: active = viability under 80%; inactive = viability 80% or more
Shown is a random part of the about 2,100 reagents, under one of the conditions tested. 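Calls flag viability under 80% in either arm, not effects specific to rucaparib; the reference for percent is not stated.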 Some reagents were tested in more than one well and are listed for each. Not given: the 100% reference.

Target gene	technical replicate	viability, normalised (%)	activity call
CDYL2 (GeneID 124359)	1	26.6	active
CDYL2 (GeneID 124359)	2	43.5	active
CDYL2 (GeneID 124359)	3	52.3	active
ADCK2 (GeneID 90956)	1	58.8	active
ADCK2 (GeneID 90956)	2	71.3	active
ADCK2 (GeneID 90956)	3	51.8	active
TSSK4 (GeneID 283629)	1	56.4	active
TSSK4 (GeneID 283629)	2	45.3	active
TSSK4 (GeneID 283629)	3	39.4	active
GLI1 (GeneID 2735)	1	59.5	active
GLI1 (GeneID 2735)	2	61.1	active
GLI1 (GeneID 2735)	3	50.6	active
CDK17 (GeneID 5128)	1	66.6	active
CDK17 (GeneID 5128)	2	44	active
CDK17 (GeneID 5128)	3	55.9	active
LMTK2 (GeneID 22853)	1	47.9	active
LMTK2 (GeneID 22853)	2	50.4	active
LMTK2 (GeneID 22853)	3	46.4	active
BMPR2 (GeneID 659)	1	71.3	active
BMPR2 (GeneID 659)	2	57	active
BMPR2 (GeneID 659)	3	59.4	active
SCMH1 (GeneID 22955)	1	38.4	active
SCMH1 (GeneID 22955)	2	45.9	active
SCMH1 (GeneID 22955)	3	36.9	active

Part of the list above, reformatted:
Target gene,technical replicate,"viability, normalised (%)",activity call
BMPR2 (GeneID 659),3,59.4,active
SCMH1 (GeneID 22955),1,38.4,active
SCMH1 (GeneID 22955),2,45.9,active

The results go on.
Target gene	technical replicate	viability, normalised (%)	activity call
H4C2 (GeneID 8366)	1	74.1	active
H4C2 (GeneID 8366)	2	57.2	active
H4C2 (GeneID 8366)	3	51.1	active
SBK1 (GeneID 388228)	1	62.3	active
SBK1 (GeneID 388228)	2	78.1	active
SBK1 (GeneID 388228)	3	44.7	active
CHM (GeneID 1121)	1	31.4	active
CHM (GeneID 1121)	2	48.4	active
CHM (GeneID 1121)	3	26.7	active
DDX21 (GeneID 9188)	1	50.8	active
DDX21 (GeneID 9188)	1	38.5	active
DDX21 (GeneID 9188)	2	46.6	active
DDX21 (GeneID 9188)	2	43.9	active
DDX21 (GeneID 9188)	3	57.2	active
DDX21 (GeneID 9188)	3	46.6	active
HERC3 (GeneID 8916)	1	55.2	active
HERC3 (GeneID 8916)	2	66.6	active
HERC3 (GeneID 8916)	3	42.7	active
MBD3 (GeneID 53615)	1	29.4	active
MBD3 (GeneID 53615)	2	26.5	active
MBD3 (GeneID 53615)	3	27.2	active
PLCE1 (GeneID 51196)	1	60.5	active
PLCE1 (GeneID 51196)	2	65.6	active
PLCE1 (GeneID 51196)	3	51.7	active
L3MBTL4 (GeneID 91133)	1	37	active
L3MBTL4 (GeneID 91133)	2	59.5	active
L3MBTL4 (GeneID 91133)	3	41.9	active
TPD52 (GeneID 7163)	1	57.5	active
TPD52 (GeneID 7163)	2	32.5	active
TPD52 (GeneID 7163)	3	41.1	active
DDX47 (GeneID 51202)	1	34.7	active
DDX47 (GeneID 51202)	2	37.4	active
DDX47 (GeneID 51202)	3	47.5	active
